Among the data in publication PMC5512577, “PDE6δ-mediated sorting of INPP5E into the cilium is determined by cargo-carrier affinity” (Nature Communications, 2016) are binding values, retold here.

Protein sequences, listed by entry. Tags and fused reporters are not part of them. Lines headed by an entry give the natural chain unless they say otherwise; changes in a name come on top.
UniProt Q9JII1: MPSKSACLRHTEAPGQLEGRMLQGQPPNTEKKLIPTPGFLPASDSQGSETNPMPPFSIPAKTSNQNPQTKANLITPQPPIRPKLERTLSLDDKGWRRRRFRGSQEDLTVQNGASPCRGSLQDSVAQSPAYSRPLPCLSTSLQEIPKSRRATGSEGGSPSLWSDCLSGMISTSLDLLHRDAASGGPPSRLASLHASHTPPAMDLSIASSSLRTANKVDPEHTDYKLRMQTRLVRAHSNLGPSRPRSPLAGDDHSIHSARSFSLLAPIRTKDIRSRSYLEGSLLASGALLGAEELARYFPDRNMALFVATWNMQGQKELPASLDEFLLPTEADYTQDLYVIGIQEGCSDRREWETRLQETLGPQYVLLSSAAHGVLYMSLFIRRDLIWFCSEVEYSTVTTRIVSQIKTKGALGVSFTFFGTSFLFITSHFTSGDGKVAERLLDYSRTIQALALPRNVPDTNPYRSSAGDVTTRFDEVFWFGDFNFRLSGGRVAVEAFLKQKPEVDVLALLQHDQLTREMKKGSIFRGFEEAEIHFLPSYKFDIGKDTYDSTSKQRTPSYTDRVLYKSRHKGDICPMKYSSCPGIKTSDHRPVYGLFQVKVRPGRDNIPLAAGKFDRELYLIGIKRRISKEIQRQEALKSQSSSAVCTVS

The experiment concerns the target GST-PDE6δ (UniProt O43924). Briefly: pull-down; GSH-beads with 20 μM GST-PDE6δ incubated 1 h at 4 °C with cleared IMCD3 lysates; then with or without 20 μM Arl2 or Arl3 for 1 h; anti-GFP blot; only the target purified.

Results are given in words; binding and its absence hold for the method and conditions named. In cells and extracts the contact can be indirect. A result given as binding can be weak or reduced; the word gives no strength.

Take “LAP-tagged mouse INPP5E(KS) (S641K/V643S) (from UniProt Q9JII1)”: the binding entry is reported as “binds”. In the case of “LAP-tagged mouse INPP5E(WT) (from UniProt Q9JII1)”, the binding result is reported as “binds”.
